Reference: patent US7790687B2, “Treatment for neurodegeneration” (Proximagen Ltd., priority 2005, dated 2010)

Tested on: ED1, OX-42 and GFAP positive cells in the rat SN
Test: Intranigral LPS injection, gliosis (ED1, OX-42, GFAP immunoreactivity) in the SN
Format: in vivo
Details: post intranigral LPS injection, injected SN

## lipopolysaccharide [LPS]
  time of peak ED1 positive cell number: 24 h
  time of peak OX-42 positive cell number: 72 h
Of the time points studied
  time of highest GFAP expression: 120 h

The amount applied is not stated for every result.
